Assay results as given in PMC11840735.

Chains of the proteins cited; added tags and fusions are not shown.
UniProt Q6P6C2: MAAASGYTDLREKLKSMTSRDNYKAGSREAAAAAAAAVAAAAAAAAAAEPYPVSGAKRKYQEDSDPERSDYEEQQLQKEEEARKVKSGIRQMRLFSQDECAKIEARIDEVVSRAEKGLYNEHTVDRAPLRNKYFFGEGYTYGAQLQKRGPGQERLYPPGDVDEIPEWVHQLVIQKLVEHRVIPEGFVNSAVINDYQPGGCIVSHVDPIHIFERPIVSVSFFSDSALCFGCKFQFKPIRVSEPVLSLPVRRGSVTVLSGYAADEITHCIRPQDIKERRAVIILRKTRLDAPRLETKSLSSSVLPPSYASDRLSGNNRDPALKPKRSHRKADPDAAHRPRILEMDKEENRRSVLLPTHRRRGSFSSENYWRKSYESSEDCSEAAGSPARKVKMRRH
UniProt Q9P289: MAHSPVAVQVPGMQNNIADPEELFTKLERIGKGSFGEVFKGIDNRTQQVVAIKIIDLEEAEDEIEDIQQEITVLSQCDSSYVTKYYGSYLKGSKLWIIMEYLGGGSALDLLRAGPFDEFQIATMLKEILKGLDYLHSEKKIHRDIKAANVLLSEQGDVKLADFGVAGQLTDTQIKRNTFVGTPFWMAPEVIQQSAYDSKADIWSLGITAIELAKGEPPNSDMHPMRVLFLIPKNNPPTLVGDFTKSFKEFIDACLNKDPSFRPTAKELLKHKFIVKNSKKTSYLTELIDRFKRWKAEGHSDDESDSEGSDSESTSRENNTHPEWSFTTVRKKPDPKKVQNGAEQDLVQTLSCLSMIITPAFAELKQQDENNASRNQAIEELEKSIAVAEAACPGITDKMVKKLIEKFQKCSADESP

Target: endogenous ALKBH5 of GSCs (human (endogenous in patient-derived GSCs)) (UniProt Q6P6C2)
Assay: affinity purification with mass spectrometry; proteins immunoprecipitated with an antibody specific to ALKBH5 in GSCs (GSC 83), analysed by mass spectrometry

binding: binds
Substance: endogenous MST4 of GSCs (from UniProt Q9P289 1-416) (enzyme)

No constants are given. Whether binding was seen depends on the method and setting. In cells and extracts the contact can be indirect. Here binding means that the protein was enriched with, or labelled near, the bait; the list need not be complete.
